From PMC6841725
Results are given in words; binding and its absence hold for the method and conditions named. In cells and extracts the contact can be indirect. Some entries that bind do so weakly or less than the wild type. Values belong to the substance of their own block, whether it stands above or below them.

Amino acid sequences for entries named in this document (tags omitted).
UniProt P28223: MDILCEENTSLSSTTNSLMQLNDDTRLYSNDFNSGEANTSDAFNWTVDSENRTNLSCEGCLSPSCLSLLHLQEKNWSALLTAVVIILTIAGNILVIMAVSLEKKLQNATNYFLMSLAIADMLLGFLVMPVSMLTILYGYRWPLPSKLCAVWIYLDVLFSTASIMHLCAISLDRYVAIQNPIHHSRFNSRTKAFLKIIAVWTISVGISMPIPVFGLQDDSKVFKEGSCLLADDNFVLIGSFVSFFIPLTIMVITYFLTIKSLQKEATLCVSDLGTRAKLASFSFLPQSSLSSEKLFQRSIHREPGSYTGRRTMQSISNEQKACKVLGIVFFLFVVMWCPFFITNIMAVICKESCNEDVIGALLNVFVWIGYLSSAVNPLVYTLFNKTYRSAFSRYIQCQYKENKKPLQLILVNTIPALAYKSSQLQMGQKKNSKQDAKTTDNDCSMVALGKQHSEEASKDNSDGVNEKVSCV

Legend:
D2LR-Rluc8 (human) = D2LR-Rluc8 (human) (UniProt P14416); experiment: FRET or BRET; BRET1 saturation assay in HEK293T cells; constant Rluc8-tagged donor cDNA (100 ng 3xHA 5-HT2AR-Rluc8 or 50 ng D2LR-Rluc8) and increasing mVenus-labeled acceptor cDNA (0-700 ng); coelenterazine-h 5 µM; read 48 h after transfection
[1] = target: dopamine D2 receptor (D2R), long isoform D2LR (human) (UniProt P14416); experiment: proximity ligation; in situ PLA on 4% PFA fixed, permeabilised HT22 cells 48 h after transient co-transfection; rabbit polyclonal NTS1R antibody and mouse D2R antibody; confocal microscopy; untransfected HT22 cells as controls
[2] = target: 3xHA 5-HT2AR-Rluc8 (human) (UniProt P28223); experiment: FRET or BRET; BRET1 saturation assay in HEK293T cells; constant Rluc8-tagged donor cDNA (100 ng 3xHA 5-HT2AR-Rluc8 or 50 ng D2LR-Rluc8) and increasing mVenus-labeled acceptor cDNA (0-700 ng); coelenterazine-h 5 µM; read 48 h after transfection

binding (D2LR-Rluc8 (human)): binds
Substance: 3xHA 5-HT2AR-mVenus (from UniProt P28223 1-471) (receptor)

binding [1]: binds
Substance: neurotensin receptor 1 (NTS1R) (from UniProt P30989 1-418)

binding [2]: binds
Substance: D2LR-mVenus (from UniProt P14416 1-443) (receptor)
